Measurements reported in paper PMC8081163.
Results are given in words; binding and its absence hold for the method and conditions named. In cells and extracts the contact can be indirect. These calls come from enrichment with a bait or labelling near it, and not all partners need be listed.

Protein sequences, listed by entry. Tags and fused reporters are not part of them. Lines headed by an entry give the natural chain unless they say otherwise; changes in a name come on top.
UniProt Q61656: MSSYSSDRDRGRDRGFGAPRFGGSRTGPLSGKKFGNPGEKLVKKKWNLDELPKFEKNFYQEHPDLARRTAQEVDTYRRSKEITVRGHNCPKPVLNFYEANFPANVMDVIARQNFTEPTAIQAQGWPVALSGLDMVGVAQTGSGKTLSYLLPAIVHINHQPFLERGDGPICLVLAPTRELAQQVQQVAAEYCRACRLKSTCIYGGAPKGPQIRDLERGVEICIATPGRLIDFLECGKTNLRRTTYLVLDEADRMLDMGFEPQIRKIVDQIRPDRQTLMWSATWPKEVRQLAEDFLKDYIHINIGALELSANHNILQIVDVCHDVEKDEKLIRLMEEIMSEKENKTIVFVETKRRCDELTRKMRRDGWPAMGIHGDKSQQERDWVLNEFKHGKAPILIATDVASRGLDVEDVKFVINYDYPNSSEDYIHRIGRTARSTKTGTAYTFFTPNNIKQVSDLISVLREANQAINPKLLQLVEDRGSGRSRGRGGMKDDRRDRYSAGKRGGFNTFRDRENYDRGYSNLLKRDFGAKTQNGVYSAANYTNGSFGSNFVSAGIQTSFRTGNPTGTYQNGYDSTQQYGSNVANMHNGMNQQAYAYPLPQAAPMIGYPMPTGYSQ
UniProt Q8C3P7: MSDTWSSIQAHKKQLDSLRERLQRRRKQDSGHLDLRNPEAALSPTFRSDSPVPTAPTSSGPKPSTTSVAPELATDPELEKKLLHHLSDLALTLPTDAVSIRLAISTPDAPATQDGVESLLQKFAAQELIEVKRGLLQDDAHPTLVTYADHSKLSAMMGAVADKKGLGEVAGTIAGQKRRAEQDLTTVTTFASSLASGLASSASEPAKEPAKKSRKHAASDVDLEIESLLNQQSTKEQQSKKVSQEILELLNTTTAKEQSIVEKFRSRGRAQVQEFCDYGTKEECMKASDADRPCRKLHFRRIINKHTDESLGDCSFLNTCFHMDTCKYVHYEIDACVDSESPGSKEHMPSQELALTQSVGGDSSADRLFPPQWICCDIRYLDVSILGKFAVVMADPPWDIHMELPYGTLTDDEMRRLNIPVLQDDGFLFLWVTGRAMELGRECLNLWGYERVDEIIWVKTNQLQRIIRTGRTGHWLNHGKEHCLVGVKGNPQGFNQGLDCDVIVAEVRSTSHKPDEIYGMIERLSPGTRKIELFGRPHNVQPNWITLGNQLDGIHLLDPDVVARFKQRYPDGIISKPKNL

Biological target: DDX5 (endogenous, mouse cells) (mouse (endogenous in MEFs NIH/3T3 and macrophages J774A.1)) (UniProt Q61656)
Assay: affinity purification with mass spectrometry

binding: binds
Substance: METTL3 (endogenous, mouse cells) (from UniProt Q8C3P7 1-580)
